Experimental data published in paper PMC9106349.

Target: T1, myc-tagged UNC45A WT (human) (UniProt Q9H3U1)
T1 sequence: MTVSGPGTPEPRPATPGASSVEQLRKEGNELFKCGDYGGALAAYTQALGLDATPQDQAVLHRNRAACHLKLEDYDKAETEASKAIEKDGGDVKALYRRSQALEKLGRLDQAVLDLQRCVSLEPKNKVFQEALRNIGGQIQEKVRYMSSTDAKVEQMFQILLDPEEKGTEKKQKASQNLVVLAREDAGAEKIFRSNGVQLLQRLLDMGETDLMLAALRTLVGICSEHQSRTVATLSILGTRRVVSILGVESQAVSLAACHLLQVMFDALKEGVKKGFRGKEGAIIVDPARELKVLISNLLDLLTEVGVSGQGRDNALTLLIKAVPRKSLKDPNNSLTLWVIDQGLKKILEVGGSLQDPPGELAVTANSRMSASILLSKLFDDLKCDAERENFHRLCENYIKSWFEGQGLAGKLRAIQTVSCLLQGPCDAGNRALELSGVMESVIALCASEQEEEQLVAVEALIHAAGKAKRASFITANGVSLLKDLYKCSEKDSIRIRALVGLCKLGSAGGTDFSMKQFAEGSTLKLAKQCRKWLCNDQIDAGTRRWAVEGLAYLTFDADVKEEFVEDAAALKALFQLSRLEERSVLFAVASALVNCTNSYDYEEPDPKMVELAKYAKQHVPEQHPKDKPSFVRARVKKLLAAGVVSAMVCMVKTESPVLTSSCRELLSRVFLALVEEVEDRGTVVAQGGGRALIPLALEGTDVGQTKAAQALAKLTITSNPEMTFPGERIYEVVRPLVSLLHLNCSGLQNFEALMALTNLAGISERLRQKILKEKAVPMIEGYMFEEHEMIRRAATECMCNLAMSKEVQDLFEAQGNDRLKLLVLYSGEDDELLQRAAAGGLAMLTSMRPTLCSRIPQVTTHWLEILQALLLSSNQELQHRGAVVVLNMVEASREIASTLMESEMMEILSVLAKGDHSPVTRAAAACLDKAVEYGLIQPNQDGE
Test: co-IP; myc immunoprecipitates of WT-UNC45A from Caco-2 lysate (μMACS c-myc Isolation Kit), Western blot for myosin VB and HSP90

binding: binds
Substance: HSP90 (human (endogenous in Caco-2))

No constants are given. Whether binding was seen depends on the method and setting. In cells and extracts the contact can be indirect. Binding can be weak; no strength is given. Tags and fused reporters may be left off the sequences shown.
